# From publication PMC7540872
# Amino acid sequences for entries named in this document (tags omitted).
# UniProt Q9RBS2: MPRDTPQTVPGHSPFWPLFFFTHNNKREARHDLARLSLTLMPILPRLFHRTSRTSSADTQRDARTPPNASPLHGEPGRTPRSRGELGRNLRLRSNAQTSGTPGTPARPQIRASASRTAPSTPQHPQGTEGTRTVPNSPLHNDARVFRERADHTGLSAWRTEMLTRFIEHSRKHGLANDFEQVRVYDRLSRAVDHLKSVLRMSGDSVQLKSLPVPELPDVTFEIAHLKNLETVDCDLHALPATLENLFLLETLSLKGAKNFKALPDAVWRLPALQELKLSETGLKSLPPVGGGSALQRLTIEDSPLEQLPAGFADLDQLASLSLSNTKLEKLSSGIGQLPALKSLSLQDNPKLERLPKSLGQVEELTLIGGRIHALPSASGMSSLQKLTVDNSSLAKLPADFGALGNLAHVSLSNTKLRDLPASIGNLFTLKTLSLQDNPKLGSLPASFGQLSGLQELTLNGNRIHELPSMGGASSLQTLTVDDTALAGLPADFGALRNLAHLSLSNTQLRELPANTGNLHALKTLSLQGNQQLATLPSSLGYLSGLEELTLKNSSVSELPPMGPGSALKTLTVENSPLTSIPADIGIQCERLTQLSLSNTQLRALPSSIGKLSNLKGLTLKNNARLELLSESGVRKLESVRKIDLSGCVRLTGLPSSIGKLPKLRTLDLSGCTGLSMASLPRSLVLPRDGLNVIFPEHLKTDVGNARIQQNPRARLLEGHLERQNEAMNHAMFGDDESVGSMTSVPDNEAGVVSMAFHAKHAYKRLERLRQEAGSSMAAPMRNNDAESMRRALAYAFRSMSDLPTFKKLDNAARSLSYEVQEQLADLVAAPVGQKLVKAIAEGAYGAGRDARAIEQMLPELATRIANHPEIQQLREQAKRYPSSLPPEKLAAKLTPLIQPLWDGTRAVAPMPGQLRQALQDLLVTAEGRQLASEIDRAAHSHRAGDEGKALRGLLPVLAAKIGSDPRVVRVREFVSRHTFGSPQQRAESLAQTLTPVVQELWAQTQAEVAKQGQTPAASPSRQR
# These are yes or no findings as the source states them, for the method shown. In cells and extracts the contact can be indirect. Some binding calls cover weakened binding; strength is not graded here. For part of these data: Where a sequence is shown, tags or fusion partners need not be part of it.
# T1: cLUC-AtSGT1b (Arabidopsis) (UniProt Q9SUT5)
# T1 sequence: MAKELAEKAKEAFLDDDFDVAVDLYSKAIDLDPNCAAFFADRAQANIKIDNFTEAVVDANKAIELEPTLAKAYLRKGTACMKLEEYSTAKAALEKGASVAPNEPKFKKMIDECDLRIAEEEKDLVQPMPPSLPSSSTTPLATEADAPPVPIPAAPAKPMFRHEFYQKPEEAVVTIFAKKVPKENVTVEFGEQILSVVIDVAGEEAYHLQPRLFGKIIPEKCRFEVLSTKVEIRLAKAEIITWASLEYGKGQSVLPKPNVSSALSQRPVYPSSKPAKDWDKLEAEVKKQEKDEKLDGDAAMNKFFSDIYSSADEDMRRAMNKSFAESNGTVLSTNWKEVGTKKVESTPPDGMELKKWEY
# T2: RPS2 fused to a luciferase half (UniProt Q42484)
# T2 sequence: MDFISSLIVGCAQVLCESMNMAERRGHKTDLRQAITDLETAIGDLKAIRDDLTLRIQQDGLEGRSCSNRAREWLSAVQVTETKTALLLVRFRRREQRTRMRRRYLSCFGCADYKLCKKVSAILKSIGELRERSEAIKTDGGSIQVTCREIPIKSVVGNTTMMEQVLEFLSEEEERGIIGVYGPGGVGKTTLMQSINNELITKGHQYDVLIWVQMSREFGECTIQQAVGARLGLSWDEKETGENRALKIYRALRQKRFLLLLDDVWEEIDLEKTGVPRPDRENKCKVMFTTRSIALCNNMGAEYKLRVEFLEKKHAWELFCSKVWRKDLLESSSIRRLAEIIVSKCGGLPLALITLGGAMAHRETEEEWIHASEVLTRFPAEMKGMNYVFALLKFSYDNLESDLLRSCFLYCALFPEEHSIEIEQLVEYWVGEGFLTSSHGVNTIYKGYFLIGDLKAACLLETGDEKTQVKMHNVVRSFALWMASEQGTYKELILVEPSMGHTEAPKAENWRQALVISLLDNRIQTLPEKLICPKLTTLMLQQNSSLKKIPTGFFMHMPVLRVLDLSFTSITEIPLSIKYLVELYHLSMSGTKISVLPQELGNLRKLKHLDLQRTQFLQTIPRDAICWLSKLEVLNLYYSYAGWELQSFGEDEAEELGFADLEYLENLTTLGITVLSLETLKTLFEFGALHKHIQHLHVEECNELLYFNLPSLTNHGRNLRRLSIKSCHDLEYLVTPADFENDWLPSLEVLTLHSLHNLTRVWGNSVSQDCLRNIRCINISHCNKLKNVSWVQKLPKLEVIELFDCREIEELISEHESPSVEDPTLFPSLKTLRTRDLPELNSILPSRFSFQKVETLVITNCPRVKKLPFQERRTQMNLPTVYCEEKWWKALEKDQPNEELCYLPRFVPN
# Assays:
# [1] = molecular target: T1, cLUC-AtSGT1b (Arabidopsis); test: split reporter
# [2] = molecular target: RipAC tagged with one of the portions of a split-YFP molecule (Ralstonia solanacearum GMI1000) (UniProt Q9RBS2); test: split reporter
# [3] = molecular target: T2, RPS2 fused to a luciferase half; test: split reporter; Split-LUC in N. benthamiana leaves (Agrobacterium OD600 = 0.2); CCD imaging and microplate luminescence reader
# [4] = molecular target: RipAC-GFP (Ralstonia solanacearum GMI1000) (UniProt Q9RBS2); test: co-IP
Molecule,binding [2],binding [3],also measured
RipAC-GFP (from UniProt Q9RBS2 1-1024),–,–,binding [1]: binds
"AtSGT1a tagged with one of the portions of a split-YFP molecule (protein, UniProt Q9SUR9 1-350) MAKELADKAKEAFVDDDFDVAVDLYSKAIDLDPNCAEFFADRAQAYIKLESFTEAVADANKAIELDPSLTKAYLRKGTACMKLEEYRTAKTALEKGASITPSESKFKKLIDECNFLITEEEKDLVQPVPSTLPSSVTAPPVSELDVTPTAKYRHEYYQKPEEVVVTVFAKGIPKQNVNIDFGEQILSVVIEVPGEDAYYLQPRLFGKIIPDKCKYEVLSTKIEICLAKADIITWASLEHGKGPAVLPKPNVSSEVSQRPAYPSSKKVKDWDKLEAEVKKQEKDEKLEGDAALNKFFREIYQNADEDMRRAMSKSFVESNGTVLSTNWQEVGTKTIESTPPDGMELKKWEI",binds,–,–
"AtSGT1b tagged with one of the portions of a split-YFP molecule (protein, UniProt Q9SUT5 1-358) MAKELAEKAKEAFLDDDFDVAVDLYSKAIDLDPNCAAFFADRAQANIKIDNFTEAVVDANKAIELEPTLAKAYLRKGTACMKLEEYSTAKAALEKGASVAPNEPKFKKMIDECDLRIAEEEKDLVQPMPPSLPSSSTTPLATEADAPPVPIPAAPAKPMFRHEFYQKPEEAVVTIFAKKVPKENVTVEFGEQILSVVIDVAGEEAYHLQPRLFGKIIPEKCRFEVLSTKVEIRLAKAEIITWASLEYGKGQSVLPKPNVSSALSQRPVYPSSKPAKDWDKLEAEVKKQEKDEKLDGDAAMNKFFSDIYSSADEDMRRAMNKSFAESNGTVLSTNWKEVGTKKVESTPPDGMELKKWEY",binds,–,–
"cLUC-AtSGT1b (protein, UniProt Q9SUT5 1-358) MAKELAEKAKEAFLDDDFDVAVDLYSKAIDLDPNCAAFFADRAQANIKIDNFTEAVVDANKAIELEPTLAKAYLRKGTACMKLEEYSTAKAALEKGASVAPNEPKFKKMIDECDLRIAEEEKDLVQPMPPSLPSSSTTPLATEADAPPVPIPAAPAKPMFRHEFYQKPEEAVVTIFAKKVPKENVTVEFGEQILSVVIDVAGEEAYHLQPRLFGKIIPEKCRFEVLSTKVEIRLAKAEIITWASLEYGKGQSVLPKPNVSSALSQRPVYPSSKPAKDWDKLEAEVKKQEKDEKLDGDAAMNKFFSDIYSSADEDMRRAMNKSFAESNGTVLSTNWKEVGTKKVESTPPDGMELKKWEY",–,binds,–
"AtSGT1b T346A fused to a luciferase half (protein, UniProt Q9SUT5 1-358) MAKELAEKAKEAFLDDDFDVAVDLYSKAIDLDPNCAAFFADRAQANIKIDNFTEAVVDANKAIELEPTLAKAYLRKGTACMKLEEYSTAKAALEKGASVAPNEPKFKKMIDECDLRIAEEEKDLVQPMPPSLPSSSTTPLATEADAPPVPIPAAPAKPMFRHEFYQKPEEAVVTIFAKKVPKENVTVEFGEQILSVVIDVAGEEAYHLQPRLFGKIIPEKCRFEVLSTKVEIRLAKAEIITWASLEYGKGQSVLPKPNVSSALSQRPVYPSSKPAKDWDKLEAEVKKQEKDEKLDGDAAMNKFFSDIYSSADEDMRRAMNKSFAESNGTVLSTNWKEVGTKKVESAPPDGMELKKWEY",–,binds,–
"AtSGT1b (transiently expressed, CoIP) (protein, UniProt Q9SUT5 1-358) MAKELAEKAKEAFLDDDFDVAVDLYSKAIDLDPNCAAFFADRAQANIKIDNFTEAVVDANKAIELEPTLAKAYLRKGTACMKLEEYSTAKAALEKGASVAPNEPKFKKMIDECDLRIAEEEKDLVQPMPPSLPSSSTTPLATEADAPPVPIPAAPAKPMFRHEFYQKPEEAVVTIFAKKVPKENVTVEFGEQILSVVIDVAGEEAYHLQPRLFGKIIPEKCRFEVLSTKVEIRLAKAEIITWASLEYGKGQSVLPKPNVSSALSQRPVYPSSKPAKDWDKLEAEVKKQEKDEKLDGDAAMNKFFSDIYSSADEDMRRAMNKSFAESNGTVLSTNWKEVGTKKVESTPPDGMELKKWEY",–,–,binding [4]: binds
